Reference: patent US20090220435A1 (priority 2005, published 2009)
End groups of sequences in plain letters are not given here. No end group written: not given here.

Test: peptide synthesis
Conditions: whole synthesis

Substance | purity (crude or final not stated) [%]
CNGRCGGKKKLKLLLKLL | 94.01
LRKLRKLRLLRLRKLRKRLLR-NH2 | 99.29
